# Some of the results follow.
# B1: Epa21 (Candida glabrata) (protein)
# chain: MGSSHHHHHHSSGLVPRGSHMASTPNIESHPQGCSPVDTSGIKPGLKMDLYRFPITPPGTGCWSWDWLTVTPDFPRSGYWKWPKIAEVDGVVGPLHLDSGHPTCDPLTSVLPHGFNYLQSITTTNFTMVLHGYFVPKQSGKYTFEFKADDALLLNLGAGNAFSCCDYNNSQYNQGEYLAYAIWSKNNQTATLYLEKGIYYPIRVFYHNRCCGAYMDVVYYFNDSPIPNRDFSGLLFSIPDSDSCDANI
# How the values were obtained:
# Test in all cases: glycan array binding signal (z-score within array); higher = stronger binding
# Conditions in all cases: glycan notation: IUPAC condensed, linker removed
# [1] = biological target: GlcNAc(b1-3)Gal(b1-4)GlcNAc(b1-3)Gal(b1-4)GlcNAc(b1-3)Gal(b1-4)GlcNAc(b1-3)Gal(b1-4)GlcNAc(b1-2)[GlcNAc(b1-3)Gal(b1-4)GlcNAc(b1-3)Gal(b1-4)GlcNAc(b1-3)Gal(b1-4)GlcNAc(b1-3)Gal(b1-4)GlcNAc(b1-6)]Man(a1-6)[GlcNAc(b1-3)Gal(b1-4)GlcNAc(b1-3)Gal(b1-4)GlcNAc(b1-3)Gal(b1-4)GlcNAc(b1-3)Gal(b1-4)GlcNAc(b1-2)Man(a1-3)]Man(b1-4)GlcNAc(b1-4)[Fuc(a1-6)]GlcNAc
# How it was run: (§1)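 Columns mapping to the same glycan were averaged after glycan names were converted to IUPAC-condensed notation. The data come from 3228 arrays in the Consortium for Functional Glycomics database, limited to those with an available protein sequence. Binding is reported as a within-array Z-score averaged across arrays of one protein sequence and across linkers.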
# [2] = biological target: GlcNAc(b1-3)Gal(b1-4)GlcNAc(b1-3)Gal(b1-4)GlcNAc(b1-3)GalNAc
# How it was run: as §1
# [3] = biological target: GlcNAc(b1-3)Gal(b1-4)GlcNAc(b1-3)GalNAc
# How it was run: as §1
# [4] = biological target: GlcNAc(b1-3)Gal(b1-4)GlcNAc(b1-3)[GlcNAc(b1-3)Gal(b1-4)GlcNAc(b1-3)]GalNAc
# How it was run: as §1
# [5] = biological target: GlcNAc(b1-3)Gal(b1-4)GlcNAc(b1-6)[Gal(b1-3)]GalNAc
# How it was run: as §1
# [6] = biological target: GlcNAc(b1-3)Gal(b1-4)GlcNAc(b1-6)[GlcNAc(b1-3)Gal(b1-3)]GalNAc
# How it was run: as §1
# [7] = biological target: GlcNAc(b1-3)Gal(b1-4)GlcNAc(b1-6)[GlcNAc(b1-3)]Gal(b1-4)GlcNAc
# How it was run: as §1
# GlcNAc(b1-3)GalNAc = biological target: GlcNAc(b1-3)GalNAc
# How it was run: as §1
# GlcNAc(b1-3)Man = biological target: GlcNAc(b1-3)Man
# How it was run: as §1
# [8] = biological target: GlcNAc(b1-3)[GlcNAc(b1-4)][GlcNAc(b1-6)]GlcNAc
# How it was run: as §1
# [9] = biological target: GlcNAc(b1-3)[GlcNAc(b1-6)]Gal(b1-4)GlcNAc
# How it was run: as §1
# [10] = biological target: GlcNAc(b1-3)[GlcNAc(b1-6)]GalNAc
# How it was run: as §1
# [11] = biological target: GlcNAc(b1-4)Gal(b1-4)GlcNAc
# How it was run: as §1
# GlcNAc(b1-4)GlcNAc = biological target: GlcNAc(b1-4)GlcNAc
# How it was run: as §1
# [12] = biological target: GlcNAc(b1-4)GlcNAc(b1-4)GlcNAc
# How it was run: as §1
# [13] = biological target: GlcNAc(b1-4)GlcNAc(b1-4)GlcNAc(b1-4)GlcNAc(b1-4)GlcNAc
# How it was run: as §1
# [14] = biological target: GlcNAc(b1-4)GlcNAc(b1-4)GlcNAc(b1-4)GlcNAc(b1-4)GlcNAc(b1-4)GlcNAc
# How it was run: as §1
# [15] = biological target: GlcNAc(b1-4)[GlcNAc(b1-6)]GalNAc
# How it was run: as §1
# [16] = biological target: GlcNAc(b1-6)Gal(b1-4)GlcNAc
# How it was run: as §1
# GlcNAc(b1-6)GalNAc = biological target: GlcNAc(b1-6)GalNAc
# How it was run: as §1
# [17] = biological target: GlcNAc6S(b1-3)Gal(b1-4)GlcNAc
# How it was run: as §1
# Kdn(a2-3)Gal(b1-3)GalNAc = biological target: Kdn(a2-3)Gal(b1-3)GalNAc
# How it was run: as §1
# Kdn(a2-3)Gal(b1-3)GlcNAc = biological target: Kdn(a2-3)Gal(b1-3)GlcNAc
# How it was run: as §1
# Kdn(a2-3)Gal(b1-4)Glc = biological target: Kdn(a2-3)Gal(b1-4)Glc
# How it was run: as §1
# Kdn(a2-3)Gal(b1-4)GlcNAc = biological target: Kdn(a2-3)Gal(b1-4)GlcNAc
# How it was run: as §1
# [18] = biological target: Kdn(a2-3)Gal(b1-4)[Fuc(a1-3)]GlcNAc
# How it was run: as §1
# Kdn(a2-6)Gal(b1-4)GlcNAc = biological target: Kdn(a2-6)Gal(b1-4)GlcNAc
# How it was run: as §1
# [19] = biological target: Man(a1-2)Man(a1-2)Man(a1-3)Man
# How it was run: as §1
# [20] = biological target: Man(a1-2)Man(a1-2)Man(a1-6)[Man(a1-3)]Man
# How it was run: as §1
# Man(a1-2)Man(a1-3)Man = biological target: Man(a1-2)Man(a1-3)Man
# How it was run: as §1
# [21] = biological target: Man(a1-2)Man(a1-3)[Man(a1-2)Man(a1-6)]Man
# How it was run: as §1
# [22] = biological target: Man(a1-2)Man(a1-3)[Man(a1-2)Man(a1-6)]Man(a1-6)[Man(a1-2)Man(a1-2)Man(a1-3)]Man
# How it was run: as §1
# [23] = biological target: Man(a1-2)Man(a1-3)[Man(a1-2)Man(a1-6)]Man(a1-6)[Man(a1-2)Man(a1-2)Man(a1-3)]Man(b1-4)GlcNAc(b1-4)GlcNAc
# How it was run: as §1
# [24] = biological target: Man(a1-2)Man(a1-3)[Man(a1-6)]Man(a1-6)[Man(a1-2)Man(a1-3)]Man(b1-4)GlcNAc(b1-4)GlcNAc
# How it was run: as §1
# [25] = biological target: Man(a1-2)Man(a1-6)[Man(a1-3)]Man(a1-6)[Man(a1-2)Man(a1-2)Man(a1-3)]Man
# How it was run: as §1
# [26] = biological target: Man(a1-2)Man(a1-6)[Man(a1-3)]Man(a1-6)[Man(a1-2)Man(a1-2)Man(a1-3)]Man(b1-4)GlcNAc(b1-4)GlcNAc
# How it was run: as §1
# Man(a1-3)[Man(a1-6)]Man = biological target: Man(a1-3)[Man(a1-6)]Man
# How it was run: as §1
binder,measurement,setting,value
B1,glycan array binding signal (z-score),[1],-0.202
same,glycan array binding signal (z-score),[2],0.384
same,glycan array binding signal (z-score),[3],-0.056
same,glycan array binding signal (z-score),[4],0.027
same,glycan array binding signal (z-score),[5],0.399
same,glycan array binding signal (z-score),[6],0.504
same,glycan array binding signal (z-score),[7],-0.54
same,glycan array binding signal (z-score),GlcNAc(b1-3)GalNAc,-0.605
same,glycan array binding signal (z-score),GlcNAc(b1-3)Man,0.016
same,glycan array binding signal (z-score),[8],-0.443
same,glycan array binding signal (z-score),[9],-0.392
same,glycan array binding signal (z-score),[10],-0.434
same,glycan array binding signal (z-score),[11],-0.138
same,glycan array binding signal (z-score),GlcNAc(b1-4)GlcNAc,0.009
same,glycan array binding signal (z-score),[12],-0.39
same,glycan array binding signal (z-score),[13],0.425
same,glycan array binding signal (z-score),[14],0.112
same,glycan array binding signal (z-score),[15],-0.763
same,glycan array binding signal (z-score),[16],0.013
same,glycan array binding signal (z-score),GlcNAc(b1-6)GalNAc,0.107
same,glycan array binding signal (z-score),[17],0.257
same,glycan array binding signal (z-score),Kdn(a2-3)Gal(b1-3)GalNAc,1.54
same,glycan array binding signal (z-score),Kdn(a2-3)Gal(b1-3)GlcNAc,-0.379
same,glycan array binding signal (z-score),Kdn(a2-3)Gal(b1-4)Glc,0.419
same,glycan array binding signal (z-score),Kdn(a2-3)Gal(b1-4)GlcNAc,-0.13
same,glycan array binding signal (z-score),[18],0.588
same,glycan array binding signal (z-score),Kdn(a2-6)Gal(b1-4)GlcNAc,0.592
same,glycan array binding signal (z-score),[19],-0.825
same,glycan array binding signal (z-score),[20],-0.531
same,glycan array binding signal (z-score),Man(a1-2)Man(a1-3)Man,-1.02
same,glycan array binding signal (z-score),[21],-0.812
same,glycan array binding signal (z-score),[22],-0.949
same,glycan array binding signal (z-score),[23],-0.033
same,glycan array binding signal (z-score),[24],-0.648
same,glycan array binding signal (z-score),[25],-0.188
same,glycan array binding signal (z-score),[26],-0.027
same,glycan array binding signal (z-score),Man(a1-3)[Man(a1-6)]Man,0.047

# Some of the entries so far, with tabs.
binder	measurement	setting	value
B1	glycan array binding signal (z-score)	[3]	-0.056
same	glycan array binding signal (z-score)	[5]	0.399
same	glycan array binding signal (z-score)	GlcNAc(b1-3)GalNAc	-0.605
same	glycan array binding signal (z-score)	[14]	0.112
same	glycan array binding signal (z-score)	GlcNAc(b1-6)GalNAc	0.107
same	glycan array binding signal (z-score)	Kdn(a2-6)Gal(b1-4)GlcNAc	0.592
same	glycan array binding signal (z-score)	[25]	-0.188
same	glycan array binding signal (z-score)	Man(a1-3)[Man(a1-6)]Man	0.047

# From the supplement of paper PMC8728848
